# Data: PubChem BioAssay AID504834 (National Center for Advancing Translational Sciences (NCATS), 2011)
# Out of some 320,000 compounds screened, about 22,000 (6.9%) were called active. This list was built around the results that the source calls inconclusive (neither active nor inactive); the mix of calls is not that of the screen. The call rests on the fitted dose curve; in most records, active means well fitted inhibition curve with a large enough effect; inconclusive means small, poorly fitted or top-dose-only effect, or another doubt; inactive means no such curve, though single readings can be large or run the other way. A potency beside an inconclusive call is a rough fit, not a confirmed value.
# Test: Primary qHTS for delayed death inhibitors of the malarial parasite plastid, 96 hour incubation
# Settings: P. falciparum luciferase reporter growth; series mostly up to 28.7 µM
# How it was run: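 96 h incubation, 37 C, 5% CO2, of luciferase-reporter P. falciparum-infected RBCs (2% hematocrit, 0.05% parasitemia final) with test compounds; endpoint luminescence.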
# Potency means the concentration at half of the fitted maximal effect.
row,Structure (SMILES),Potency
1,CCc1nnc(NC(=O)c2c(O)c3cccc4c3n(c2=O)CC4)s1,"inconclusive: 11.7 µM [inhibitor, single point]"
2,C=CCc1ccc(OC)c(OC)c1,inactive
3,COc1ccc(-c2cncnc2-c2ccc(OC)cc2O)cc1,"inconclusive: 11.7 µM [inhibitor, partial curve]"
4,CN(C)N=Nc1ccc(-c2cn(Cc3ccccc3)cn2)cc1,active: 4.65 µM
5,COc1cc(/C=C/C(=O)OCC(=O)NC(=O)NC2CCCCC2C)ccc1OC(F)F (configuration not stated),"inconclusive: 11.7 µM [inhibitor, single point]"
6,Cc1ccc(NC(=O)C2CCCN(C(=O)c3ccc(Cl)cc3)C2)cc1C (configuration not stated),inactive
7,Fc1ccc(C(c2nnnn2C2CCCC2)N2CCc3ccccc32)cc1 (configuration not stated),"inconclusive: 10.4 µM [inhibitor, partial curve, poor fit]"
8,C=C(C)COc1ccc(-c2nc(N)ncc2Oc2ccccc2OC)c(O)c1,"inconclusive: 11.7 µM [inhibitor, single point]"
9,CCCc1ccc2oc(C(=O)NCCCN3CCOCC3)c(C)c2c1,"inconclusive: 18.5 µM [inhibitor, single point]"
10,CCn1cc(C(=O)NCc2ccncc2)c(=O)c2cc(F)c(N3CCN(C(=O)c4ccco4)CC3)cc21,active: 10.4 µM
11,Cc1cc(-c2csc3ncnc(N4CCN(C)CC4)c23)cc(C)c1C,"inconclusive: 9.28 µM [inhibitor, single point]"
12,COC(=O)c1[nH]c2ccc(C)cc2c1NC(=O)CCN1CCN(Cc2ccc3c(c2)OCO3)CC1,active: 8.28 µM
13,CCn1c(C(=O)O)c(CC(=O)Nc2cccc(C(F)(F)F)c2)c2ccccc21,active: 0.738 µM
14,Cc1nc2ccc(-c3nc4cc(N)ccc4o3)cc2[nH]1,"inconclusive: 0.0165 µM [inhibitor, full curve, poor fit]"
15,O=C(Cn1nc(-c2ccco2)ccc1=O)Nc1cc(C(F)(F)F)ccc1Cl,inactive
16,COc1ccc(CCN2CC(C(=O)Nc3ccc(S(C)(=O)=O)cc3)CC2=O)cc1OC (configuration not stated),"inconclusive: 6.57 µM [inhibitor, partial curve]"
17,COc1ccc(NC(=O)CSCC(=O)NCCc2ccccn2)cc1,inactive
18,CC(C)C1N=C2c3ccccc3N=C(SCC(=O)NCCc3ccc(S(N)(=O)=O)cc3)N2C1=O (configuration not stated),"inconclusive: 18.5 µM [inhibitor, partial curve, poor fit]"
19,COc1ccc(/C=C/c2ccc3ccccc3[n+]2C)cc1OC,inactive
20,CCOCCCn1c(=N)c(S(=O)(=O)c2ccc(C)cc2)cc2c(=O)n3cc(C)ccc3nc21,"inconclusive: 14.7 µM [inhibitor, single point]"
21,COC(=O)c1ccccc1NC(=O)Nc1cc(C)ccn1,"inconclusive: 18.5 µM [inhibitor, single point]"
22,CN(C)S(=O)(=O)c1ccc(NC(=O)C2CCCN(C(=O)c3ccc(Cl)cc3)C2)cc1 (configuration not stated),"inconclusive: 13.1 µM [inhibitor, partial curve, poor fit]"
23,NS(=O)(=O)c1ccc(O)c(NC(=O)c2ccc([N+](=O)[O-])o2)c1,active: 10.4 µM
24,NC(N)=NN=C(/C=C/c1ccc([N+](=O)[O-])o1)/C=C/c1ccc([N+](=O)[O-])o1,active: 3.01 µM

row,Structure (SMILES),Potency
1,CCOc1ccc(C(=O)O/N=C(\N)c2ccccn2)cc1OCC,inactive
2,Cc1ccc(C(=O)c2oc3ccccc3c2NC(=O)c2cc(-c3cc(C)ccc3O)n[nH]2)cc1,active: 0.329 µM
3,CC(=O)c1ccc(OCC(=O)Nc2ccccc2C(=O)NC2CC2)cc1,inactive
4,O=C(O)Cc1c(-c2ccccc2)c2cc(Cl)ccc2[nH]c1=O,inactive
5,NC(=O)C1CCN(C(=O)C2(NC(=O)Nc3cccc(F)c3)CCCCC2)CC1,"inconclusive: 5.22 µM [inhibitor, partial curve, poor fit]"
6,COc1ccc(Cc2nnc(NC(=O)Nc3ccc(F)cc3)s2)cc1,"inconclusive: 18.5 µM [inhibitor, single point]"
7,O=C(NCCc1ccccn1)c1cc(C(=O)C2CCCCC2)c[nH]1,"inconclusive: 18.5 µM [inhibitor, single point]"
8,COc1ccc(C(=O)Nc2ccc(C)cc2C(=O)c2ccccc2)c(OC)c1,"inconclusive: 9.28 µM [inhibitor, partial curve, poor fit]"
9,C/C(CC(=O)Nc1ccccc1-c1ccccc1)=N\NC(=O)COc1ccc(C)cc1Br,"inconclusive: 0.0037 µM [inhibitor, full curve, poor fit]"
10,COc1cccc(C(=O)Nc2nc3ccccc3s2)c1,active: 14.7 µM
11,Cc1ccc(C(=O)NC(C)CCc2ccccc2)cc1[N+](=O)[O-] (configuration not stated),"inconclusive: 0.0026 µM [inhibitor, full curve, poor fit]"
12,CCOc1ncccc1C(=O)Nc1ccc(C)cn1,inactive
13,O=C(CN1CCCCC1)Nc1cccc([N+](=O)[O-])c1,inactive
14,CC(C)[C@@H](C(=O)NC1CCN(Cc2ccccc2)CC1)N1C(=O)N2CCc3c([nH]c4ccccc34)[C@@]2(C)C1=O,active: 7.38 µM
15,CCn1c(SCC(=O)OC)nnc1C1CCCCC1,"inconclusive: 13.1 µM [inhibitor, single point]"
16,CN(C)c1ccc(NC(=O)Oc2ccccc2)cc1,active: 0.147 µM
17,COCCCNC(=O)c1cc2c(-c3cccc(OC)c3)nn(C)c2s1,"inconclusive: 1.47 µM [inhibitor, partial curve, poor fit]"
18,Cc1ccccc1NC(=O)C(C)n1c2ccccc2c2nc(=O)cc(C)n21 (configuration not stated),"inconclusive: 16.5 µM [inhibitor, single point]"
19,CCOCCCNC(=O)c1cccc(OC2CCN(S(C)(=O)=O)CC2)c1,inactive
20,COCCCn1cnc2oc3nc4ccccc4nc3c2c1=O,inactive
21,O=C(Nc1ccccc1)n1cc(-c2ccccn2)c(N2CCOCC2)n1,inactive
22,Cc1ccc2oc3c(c(=O)c2c1)C(c1cccs1)N(CCCN(C)C)C3=O (configuration not stated),inactive
23,COc1ccc(/C=C2\SC(=S)N(CCCC(=O)Nc3ccc(C(=O)O)cc3)C2=O)cc1OC,"inconclusive: 18.5 µM [inhibitor, single point]"
24,Cc1cc(NC(=O)C(C)Sc2nc(-c3cccs3)nc3ccccc23)no1 (configuration not stated),"inconclusive: 18.5 µM [inhibitor, partial curve, poor fit]"

row,Structure (SMILES),Potency
1,O=C(c1ccco1)N1CCN(S(=O)(=O)c2ccc3[nH]c(=O)oc3c2)CC1,"inconclusive: 0.0522 µM [inhibitor, full curve, poor fit]"
2,Cc1cccc(NS(=O)(=O)c2cccc(C(=O)N3CCN(S(=O)(=O)c4ccccc4)CC3)c2)c1,active: 11.7 µM
3,CS(=O)(=O)c1cccc(C(=O)Nc2ccc3c(c2)OCCCO3)c1,inactive
4,CC(C)(C)NC(=O)C(c1ccc(Cl)cc1)N(Cc1ccco1)C(=O)CCl (configuration not stated),inactive
5,O=C(CN1CCOCC1)N1CCc2ccccc2C(c2ccccc2)C1 (configuration not stated),"inconclusive: 18.5 µM [inhibitor, single point]"
6,Cc1ccc(N2C(=O)C3CC(c4ccccc4)=C4C5C=CC(C6C(=O)N(c7ccc(C)cc7)C(=O)C56)C4C3C2=O)cc1 (configuration not stated),"inconclusive: 2.33 µM [inhibitor, single point]"
7,CCOC(=O)CC(NC(=O)c1cccs1)c1ccc(OCC)cc1 (configuration not stated),active: 10.4 µM
8,CCCC(C)NC(=O)c1cc(Cl)ccc1OC (configuration not stated),"inconclusive: 5.86 µM [inhibitor, partial curve, poor fit]"
9,Cc1cc(C)n2nc(SCCC(=O)NCc3ccccc3)nc2n1,"inconclusive: 0.0059 µM [inhibitor, full curve, poor fit]"
10,O=C1CSC(c2ccncc2)N1Cc1ccc(F)cc1 (configuration not stated),"inconclusive: 18.5 µM [inhibitor, partial curve, poor fit]"
11,COc1ccc(-c2noc(CCC(=O)NCc3ccco3)n2)cc1,inactive
12,Cc1nnc(SCC(=O)Nc2nccs2)n1C(C)C,inactive
13,O=C(c1ccc(OC2CCN(CCc3ccccc3)CC2)cc1)N1CCCC(CO)C1 (configuration not stated),"inconclusive: 10.4 µM [inhibitor, single point]"
14,CCOC(=O)c1c(C)n(-c2ccc(C)cc2)c2ccc(OCC(O)CNCC3CCCO3)cc12 (configuration not stated),active: 3.29 µM
15,CCN1C(=O)CCC(C(=O)O)C1c1ccc(OC)cc1 (configuration not stated),inactive
16,COc1ccc([C@]23Cc4cc(OC)c(OC)cc4C(O2)c2c(cc(C)n(Cc4ccccc4)c2=O)O3)cc1,active: 1.51 µM
17,CC(=O)c1ccc(NC(=O)CSc2nnc(C3CC3)n2C)cc1,inactive
18,Cc1cc(NS(=O)(=O)c2ccc(N3C(=O)C4C5C=CC(C5)C4C3=O)cc2)nc(C)n1 (configuration not stated),"inconclusive: 18.5 µM [inhibitor, single point]"
19,O=C(CCc1nc2ccccc2s1)OCC(=O)c1ccccc1,inactive
20,Cc1ccc(C)c(N2CCN(C(=O)CCn3c(=S)[nH]c4cc5c(cc4c3=O)OCO5)CC2)c1,"inconclusive: 18.5 µM [inhibitor, single point]"
21,Cc1ccc(C(=O)Nc2ccc3ccccc3c2)cc1,"inconclusive: 18.5 µM [inhibitor, single point]"
22,CC(C)CCN(C(=S)Nc1cccc(F)c1)C(C)c1cccs1 (configuration not stated),"inconclusive: 10.4 µM [inhibitor, single point]"
23,Cc1c(NC(=O)c2c(NC(=O)CNC3CC3)sc3c2CCCC3)c(=O)n(-c2ccccc2)n1C,"inconclusive: 11.7 µM [inhibitor, single point]"
24,COC(=O)C1=C(C)N(c2ccc(OC)c(OC)c2)C(=O)C1,"inconclusive: 5.22 µM [inhibitor, partial curve]"

# Shown as tab-separated lines: entries from further up.
row	Structure (SMILES)	Potency
21	Cc1ccc(C(=O)Nc2ccc3ccccc3c2)cc1	inconclusive: 18.5 µM [inhibitor, single point]
22	CC(C)CCN(C(=S)Nc1cccc(F)c1)C(C)c1cccs1 (configuration not stated)	inconclusive: 10.4 µM [inhibitor, single point]
23	Cc1c(NC(=O)c2c(NC(=O)CNC3CC3)sc3c2CCCC3)c(=O)n(-c2ccccc2)n1C	inconclusive: 11.7 µM [inhibitor, single point]
